Record: PubChem BioAssay AID504784 (Drosophila RNAi Screening Center, 2011)

- Screen: 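Fly genes whose silencing alters how much lipid cells keep in droplets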 (primary screen)
- System: Drosophila Kc167 embryonic cells
- Reagents: long dsRNA against Drosophila genes, about 250 ng dsRNA per well
- Time to read-out: 4 days
- Conditions: cells fed 400 µM oleic acid bound to BSA
- Measured: 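Microscope images give a droplet-to-nucleus area ratio, taken as log and converted to a screen-wide B-score; higher values mean greater lipid storage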
- Direction: droplet/nuclear area B-score: higher = more stored lipid (overstorage)
In all, the deposit lists about 17,000 reagents; below is a random part of those that have a named target and a result. 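Each column is one replicate's B-score; the combined score over replicates was not deposited, so single values may mislead.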 Reagents against one gene are numbered here. Names joined by + are all predicted targets of the reagent.

| Target gene | dsRNA no. | droplet/nuclear area B-score, replicate 1 | droplet/nuclear area B-score, replicate 2 | droplet/nuclear area B-score, replicate 3 |
| --- | --- | --- | --- | --- |
| CG12470 | 1 | -0.936 | -4.46 | – |
| CG9143 | 1 | 1.21 | 2.16 | – |
| tei (teiresias) | 1 | 1.77 | 1.3 | – |
| CG17784 | 1 | -0.543 | -3.69 | – |
| plu (plutonium) | 1 | -0.882 | 0.103 | – |
| Tengl3 (Testis EndoG-Like 3) | 1 | -0.561 | 0.314 | – |
| Alp10 (Alkaline phosphatase 10) | 1 | -0.585 | 2.7 | – |
| CR33294 (pseudo) | 1 | -0.465 | -0.753 | – |
| Reps (RALBP1 associated Eps domain containing) | 1 | 0.097 | 2.29 | – |
| Ser (Serrate) | 1 | -0.117 | 0.289 | – |
| CG10357 | 1 | -0.703 | 0.86 | – |
| RpS21 (Ribosomal protein S21) | 1 | 0.995 | -0.0717 | – |
| CG11414 | 1 | 1.96 | -0.106 | – |
| Epp (Ecdysteroid phosphate phosphatase) | 1 | 0.295 | -1.64 | – |
| DCTN2-p50 (Dynactin 2, p50 subunit) | 1 | -0.905 | -0.236 | – |
| CG3568 | 1 | 2.31 | 1.22 | – |
| baf (barrier to autointegration factor) | 1 | -1.38 | -0.293 | – |
| Larp7 (La related protein 7) | 1 | -0.258 | 1.95 | -1.46 |
| CG5639 | 1 | 1.01 | -0.0111 | – |
| CG11350 | 1 | 0.985 | -0.617 | -0.783 |
| Mcm5 (Minichromosome maintenance 5) | 1 | -0.295 | 0.106 | – |
| CG15715 | 1 | -0.152 | -2.41 | – |
| SCCRO4 (Squamous cell carcinoma-related oncogene 4) | 1 | -1.8 | -0.128 | – |
| Ir8a (Ionotropic receptor 8a) | 1 | 1.75 | 0.091 | -0.508 |
| Ir8a (Ionotropic receptor 8a) | 2 | -2.04 | -1.91 | -1.54 |
| Mlp60A (Muscle LIM protein at 60A) | 1 | 0.216 | 0.988 | – |
| Mlp60A (Muscle LIM protein at 60A) | 2 | -2.32 | -1.05 | – |
| Mlp60A (Muscle LIM protein at 60A) | 3 | 0.48 | -0.192 | – |
| Xrp1 | 1 | -1.2 | -0.344 | – |
| Xrp1 | 2 | 0.631 | -1.73 | – |
| Rgk3 (Rad, Gem/Kir family member 3) | 1 | -0.821 | -0.0155 | 5.82 |
| Rgk3 (Rad, Gem/Kir family member 3) | 2 | -0.326 | -1.78 | – |
| Rgk3 (Rad, Gem/Kir family member 3) | 3 | 2.02 | 0.135 | – |
| Rgk3 (Rad, Gem/Kir family member 3) | 4 | -0.0901 | -0.216 | – |
| GstD2 (Glutathione S transferase D2) | 1 | 0.909 | 0.899 | – |
| CLS (Cardiolipin synthase) | 1 | -0.608 | -0.639 | – |
| CG12017 | 1 | 1.54 | 0.0498 | – |

5 entries from above, reformatted:
Target gene | dsRNA no. | droplet/nuclear area B-score, replicate 1 | droplet/nuclear area B-score, replicate 2 | droplet/nuclear area B-score, replicate 3
Rgk3 (Rad, Gem/Kir family member 3) | 3 | 2.02 | 0.135 | –
Rgk3 (Rad, Gem/Kir family member 3) | 4 | -0.0901 | -0.216 | –
GstD2 (Glutathione S transferase D2) | 1 | 0.909 | 0.899 | –
CLS (Cardiolipin synthase) | 1 | -0.608 | -0.639 | –
CG12017 | 1 | 1.54 | 0.0498 | –

More results follow:
| Target gene | dsRNA no. | droplet/nuclear area B-score, replicate 1 | droplet/nuclear area B-score, replicate 2 | droplet/nuclear area B-score, replicate 3 |
| --- | --- | --- | --- | --- |
| CG7271 | 1 | -1.11 | 0.236 | – |
| CG33233 | 1 | 1.17 | 1.04 | – |
| pps (protein partner of snf) | 1 | 2.94 | 1.81 | – |
| CG5440 | 1 | -0.06 | -0.0117 | – |
| CG31562 (retired record) | 1 | 0.0164 | -0.672 | – |
| CG31562 (retired record) | 2 | -1.56 | -0.95 | – |
| mRpL12 (mitochondrial ribosomal protein L12) | 1 | 0.263 | -0.774 | – |
| CG12865 (retired record) | 1 | 0.436 | 0.776 | – |
| Teh3 (tipE homolog 3) | 1 | 0.0275 | 1.05 | – |
| pn (prune) | 1 | 0.714 | – | – |
| Rim (Rab3 interacting molecule) | 1 | -0.49 | -0.144 | – |
| Rim (Rab3 interacting molecule) | 2 | -0.623 | -1.88 | – |
| Rim (Rab3 interacting molecule) | 3 | -0.494 | -0.207 | – |
| Rim (Rab3 interacting molecule) | 4 | -0.0992 | 0.984 | – |
| Rim (Rab3 interacting molecule) | 5 | 0.316 | 0.111 | – |
| CG31496 | 1 | -0.0218 | -1.02 | – |
| Srp19 (Signal recognition particle 19) | 1 | -2.17 | -0.268 | – |
| CG32461 | 1 | -0.135 | -0.624 | – |
| CalpC (Calpain C) | 1 | 1.9 | -4.19 | – |
| Kif3C (Kinesin family member 3C) | 1 | -0.558 | -0.938 | – |
| Kif3C (Kinesin family member 3C) | 2 | -0.0207 | 1.35 | – |
| Tango8 (Transport and Golgi organization 8) | 1 | -0.473 | 1.31 | -1.3 |
| NPF (neuropeptide F) | 1 | -0.483 | -0.0373 | – |
| CG15332 | 1 | -1.84 | -0.903 | – |
| CG34436 | 1 | -1.34 | 2.13 | – |
| Mos (Mos oncogene) | 1 | -0.0106 | -1.63 | – |
| Git (G protein-coupled receptor kinase interacting ArfGAP) | 1 | -2.14 | 0.465 | – |
| Ire1 (Inositol-requiring enzyme-1) | 1 | 4.65 | -2 | – |
| CG5984 | 1 | -1.04 | -1.16 | – |
| CG30394 | 1 | -1.74 | 0.00213 | – |
| CG30394 | 2 | 0.0456 | -2.55 | – |
| Dolk (Dolichol kinase) | 1 | -0.429 | -0.742 | – |
| CG8534 | 1 | -1.75 | 1.57 | – |
| moon (moonshiner) | 1 | 0.01 | -0.0472 | -0.0215 |
| c12.2 | 1 | -2.71 | -0.0298 | 0.983 |
| scpr-A + scpr-C | 1 | -1.08 | 0.0151 | – |
| Hakai | 1 | 1.19 | 0.352 | – |
| aqz (aaquetzalli) | 1 | 0.00141 | -2.35 | – |
| PhKgamma (Phosphorylase kinase gamma) | 1 | -1.15 | -0.111 | -0.588 |
| CG31075 | 1 | 2.1 | 0.113 | – |
| CNMaR (CNMamide Receptor) | 1 | 1.55 | 1.51 | – |
| CNMaR (CNMamide Receptor) | 2 | 0.718 | 1.2 | – |
| CG11378 | 1 | 0.42 | 1.44 | – |
| Mipp2 (Multiple inositol polyphosphate phosphatase 2) | 1 | 0.0858 | 0.837 | 0.0865 |
| CG3513 | 1 | 0.149 | 0.14 | – |
| CG32425 | 1 | -1.61 | -2.46 | – |
| CG32425 | 2 | 1.91 | -0.33 | -0.967 |
